Data taken from PubChem BioAssay AID306 (DTP/NCI, 2004).
The list does not hold the whole screen: it is rich in T/C values a quarter to a half above the control, in often repeated tests (any T/C) and in doses without a T/C. Other doses and runs of a compound stand elsewhere. T/C gives the treated animals as a percentage of the vehicle group. Some entries give survivors of the animals treated and no T/C: the source holds a T/C of zero for them, seemingly a mark for toxic or unscored doses. Some survivor counts are full or nearly so, which does not show that the dose was tolerated: survival well below the control is almost never listed, so the zero probably covers shortened survival too. Counts of survivors are from the toxicity check (mostly the fifth day) where no day follows; animals may have died later. Schedule codes are those of the source, taken here to give the interval after Q, in days (D) or hours (H), and the number of doses after X. Some schedules carry Z or #; the key to these is not given. Some structures stand for samples that the source files as different forms (salt, stereo form or complex); doses refer to the form tested. For survival time, this PubChem deposit counts one and a half times the control or more as active, and values a quarter to a half above the control carry no call in these data; other NCI protocols may use other cut-offs. Some doses were run more than once; their values stand side by side, smallest first.

Tested on: BDF1 mice, L1210 Methyl-GAG-resistant leukemia, survival T/C
Test: NCI In Vivo Anticancer Drug Screen. Data for tumor model L1210 Leukemia resistant to Methyl-GAG; NSC 32946 (subcutaneous) in B6D2F1 (BDF1) mice
Details: T/C endpoint: mean survival time, higher T/C = longer survival
Description: The antitumor activity of compounds was measured in mice bearing transplantable tumors. Survival or tumor size were measured and the results are expressed as the measurement made in the treated group (T) divided by the measurement made in the vehicle treated control group (C). The tumor model used in this assay is L1210 Leukemia resistant to Methyl-GAG; NSC 32946 (subcutaneous) in B6D2F1 (BDF1) mice

[1] = dose: 200.0 mg/kg/injection, schedule: Q01DX Z (ip), vehicle: carboxymethylcellulose (CMC)
[2] = dose: 250.0 mg/kg/injection, schedule: Q01DX Z (sc), vehicle: steroid suspending solution
[3] = dose: 500.0 mg/kg/injection, schedule: Q01DX Z (sc), vehicle: steroid suspending solution
[4] = dose: 100.0 mg/kg/injection, schedule: Q01DX Z (ip), vehicle: water
[5] = dose: 200.0 mg/kg/injection, schedule: Q01DX Z (ip), vehicle: water
[6] = dose: 50.0 mg/kg/injection, schedule: Q01DX Z (ip), vehicle: water

CCCCn1cnc2c(=S)nc[nH]c21
T/C (dose: 50.0 mg/kg/injection, schedule: Q01DX Z (ip), vehicle: carboxymethylcellulose (CMC)): 125 % of control | T/C (dose: 100.0 mg/kg/injection, schedule: Q01DX Z (ip), vehicle: carboxymethylcellulose (CMC)): 139 % of control | survivor count [1]: 5 of 6

CCCCCCCCCCCCNCCCCCCCCCCCC
survivor count (dose: 60.0 mg/kg/injection, schedule: Q01DX Z (ip), vehicle: carboxymethylcellulose (CMC)): 5 of 6

CN(C)CC(=O)c1ccc(O)c(O)c1
survivor count (dose: 1000.0 mg/kg/injection, schedule: Q01DX Z (ip), vehicle: saline): 0 of 6

C[C@]12CCC(=O)C=C1CC[C@@H]1[C@@H]2C(=O)C[C@@]2(C)[C@H]1CC[C@]2(O)C(=O)CO
T/C (dose: 125.0 mg/kg/injection, schedule: Q01DX Z (sc), vehicle: steroid suspending solution): 145 % of control | T/C (dose: 200.0 mg/kg/injection, schedule: Q01DX Z (sc), vehicle: steroid suspending solution): 146 % of control | T/C [2]: 142 % of control | T/C (dose: 400.0 mg/kg/injection, schedule: Q01DX Z (sc), vehicle: steroid suspending solution): 125 % of control | T/C [3]: 127 % of control

NC(=O)N(CCCl)N=O
survivor count (dose: 16.0 mg/kg/injection, schedule: Q01DX Z (ip), vehicle: carboxymethylcellulose (CMC)): 6 of 6 | survivor count (dose: 32.0 mg/kg/injection, schedule: Q01DX Z (ip), vehicle: carboxymethylcellulose (CMC)): 4 of 6 | survivor count (dose: 64.0 mg/kg/injection, schedule: Q01DX Z (ip), vehicle: carboxymethylcellulose (CMC)): 1 of 6

C[C@]12CCC(=O)C=C1CC[C@@H]1[C@@H]2CC[C@@]2(C)[C@H]1CC[C@]2(C)O
survivor count [2]: 1 of 6 | survivor count [3]: 0 of 6

CCCNc1ncnc2[nH]ncc12
survivor count (dose: 80.0 mg/kg/injection, schedule: Q01DX Z (ip), vehicle: water): 5 of 6 | survivor count (dose: 160.0 mg/kg/injection, schedule: Q01DX Z (ip), vehicle: water): 1 of 6

O=C(Nc1ccc(C2=NCCCN2)cc1)c1ccc(C(=O)Nc2ccc(C3=NCCCN3)cc2)cc1
survivor count (dose: 6.3 mg/kg/injection, schedule: Q01DX Z (ip), vehicle: water): 4 of 6 | survivor count (dose: 12.5 mg/kg/injection, schedule: Q01DX Z (ip), vehicle: water): 1 of 6

COS(C)(=O)=O
survivor count [4]: 5 of 6 | survivor count [5]: 0 of 6

CN(C)c1ccc(/C=C/c2ccnc3ccccc23)cc1
survivor count [6]: 6 of 6 | survivor count [4]: 5 of 6 | survivor count [1]: 6 of 6 | survivor count [5]: 1 of 6

Oc1cc(CN(CCCl)CCCl)c(O)cc1CN(CCCl)CCCl
survivor count (dose: 15.0 mg/kg/injection, schedule: Q01DX Z (sc), vehicle: steroid suspending solution): 3 of 6

Nc1nc(=S)c2[nH]cnc2[nH]1
T/C (dose: 1.0 mg/kg/injection, schedule: Q01DX Z (ip), vehicle: carboxymethylcellulose (CMC)): 134 % of control | survivor count (dose: 8.0 mg/kg/injection, schedule: Q01DX Z (ip), vehicle: carboxymethylcellulose (CMC)): 6 of 6

CCN(CC)c1ccc2cc3ccc(=[N+](CC)CC)cc-3oc2c1
survivor count (dose: 10.0 mg/kg/injection, schedule: Q01DX Z (ip), vehicle: carboxymethylcellulose (CMC)): 1 of 6

C[C@@H]1C[C@@H]([C@H](O)CC2CC(=O)NC(=O)C2)C(=O)[C@@H](C)C1
T/C (dose: 25.0 mg/kg/injection, schedule: Q01DX Z (ip), vehicle: water): 141 % of control | T/C [6]: 126 and 136 % of control | survivor count [4]: 5 of 6 | survivor count [5]: 1 of 6

C[N+](C)(C)c1ncnc2nc[nH]c12
survivor count (dose: 400.0 mg/kg/injection, schedule: Q01DX Z (ip), vehicle: carboxymethylcellulose (CMC)): 0 of 6 | survivor count (dose: 800.0 mg/kg/injection, schedule: Q01DX Z (ip), vehicle: carboxymethylcellulose (CMC)): 0 of 6

CN(N=O)C(N)=O
survivor count (dose: 50.0 mg/kg/injection, schedule: Q01DX Z (ip), vehicle: saline): 6 of 6
